This is one part of the list. The main result of the screen is listed elsewhere. These columns were measured beside it and carry no call. The list favours compounds with an active or inconclusive main result. Words in brackets tell the shape of the fitted curve; partial curves, single points and poor fits give uncertain potencies.
Assay: qHTS Assay for Lipid Storage Modulators in Drosophila S3 Cells;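 on cell number change: cells counted by Cell Tracker Red CMTPX staining in the red channel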
Conditions: BODIPY lipid droplet fluorescence, 18-24 h; for cell number change: measured here: cell count max response, cells fed with added oleic acid
Outline: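 Laser-scanning cytometry quantifies lipid droplet accumulation (500–530 nm total intensity; droplet/cell object ratio) in oleic acid-fed (400 uM added) Drosophila S3 cells treated with a concentration series. 20 uM Triacsin C defined 100% inhibition.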

[1] = measured here: lipid fluorescence (Fed channel) AC50, cells fed with added oleic acid
[2] = measured here: cell number channel AC50, cells fed with added oleic acid

Structure (SMILES)	cell number change [%]	AC50 [1]	AC50 [2]
N#Cc1c(/N=C/N2CCOCC2)sc2c1CCCCC2	-10.7	6.51 µM [rising, single point]	–
O=C(Oc1c(-c2ccccc2)c(=O)n2c3c(cccc13)CC2)c1ccco1	0.0346	0.461 µM [falling, full curve, poor fit]	–
O=C(CCCn1nnc(-c2cccnc2)n1)c1ccc(F)cc1	11.2	1.3 µM [rising, partial curve]	0.326 µM [rising, full curve]
CCC(C)NC(=O)CNC(=S)N(CCCN1CCOCC1)Cc1cccs1 (stereo not drawn)	5.19	3.26 µM [rising, single point]	–
CSc1nnnn1-c1ccc(Cl)cc1	154	–	16.4 µM [rising, single point]
Cc1cccc(NC(=O)CN2CCN(C(=O)C3CCC3)CC2)c1C	16.5	–	–
CN(C)CC[n+]1ccc(C(=O)c2ccccc2)cc1	7.62	0.651 µM [rising, single point]	–
CC1CCCN(CC(=O)NC(=O)NC2CCCCC2)C1 (stereo not drawn)	-7.35	0.651 µM [rising, single point]	–
CCn1cc(C(=O)OCC(=O)Nc2c(C)n(C)n(-c3ccccc3)c2=O)c(=O)c2ccc(C)nc21	1.22	–	–
Cc1nc(C)c(C(=O)C2=C(O)C(=O)N(CCCN(C)C)C2c2ccco2)s1 (stereo not drawn)	22	–	0.00651 µM [rising, full curve, poor fit]
COc1c(C)cc(Br)cc1C(=O)Nc1ccc(N2CCN(S(C)(=O)=O)CC2)cc1	–	2.06 µM [rising, partial curve]	–
CCC1NC(=S)N(C2CCCCC2)C1=O (stereo not drawn)	32.5	23.1 µM [rising, single point]	–
COc1cc(/C=C2/C(=O)NN(c3ccc(Cl)c(Cl)c3)C2=O)cc([N+](=O)[O-])c1O	1.8	29.1 µM [falling, single point]	0.411 µM [falling, single point]
O=C(COC(=O)COc1ccccc1Cl)Nc1ccccc1OC(F)F	-38.1	3.26 µM [falling, full curve]	1.16 µM [falling, full curve]
CN1CCC(=NNC(=O)COc2ccc(Cl)cc2)CC1	57.6	29.1 µM [rising, single point]	0.326 µM [rising, full curve]
Cc1ccc(NC(=S)C2=C(O)c3sccc3N(C)S2(=O)=O)cc1	11.7	0.103 µM [rising, full curve, poor fit]	–
Cc1cnc(NC(=O)CSc2nnc(Cc3ccccc3)n2C)s1	–	–	2.59 µM [rising, partial curve]
NC(=O)c1ccsc1NC(=O)COC(=O)c1ccc(Cl)nc1	10.5	23.1 µM [rising, single point]	–
N#Cc1c(N2CCOCC2)nc(-c2ccco2)c2c1CCCC2	-1.6	29.1 µM [rising, single point]	–
O=C(COC(=O)c1ccc(Br)o1)Nc1nc2ccccc2s1	6.52	–	0.164 µM [falling, full curve]
FC(F)(F)c1cccc(NC(=S)Nc2cccc(Cl)c2)c1	-39	18.4 µM [falling, single point]	20.6 µM [falling, single point]

Structure (SMILES)	cell number change [%]	AC50 [1]	AC50 [2]
Cc1ccccc1C(=O)N1CCN(c2ncnc3c2cnn3-c2ccccc2)CC1	-30.1	–	0.259 µM [falling, full curve, poor fit]
COc1ccc(-n2c(CCc3ccccc3)nnc2SCC(=O)c2ccccc2)cc1	-8.03	0.517 µM [falling, partial curve]	–
Cc1onc(-c2ccccc2)c1C(=O)NCCc1ccncc1	9.17	32.6 µM [rising, single point]	–
Cc1ccc(C(=O)CSc2ncnc3ccccc23)o1	-2.71	1.46 µM [rising, partial curve]	2.31 µM [rising, partial curve, poor fit]
COc1ccccc1-n1cnnc1SCc1csc(-c2ccccc2)n1	60.2	29.1 µM [rising, partial curve]	20.6 µM [rising, partial curve, poor fit]
COc1ccc(NC(=O)CSc2nnnn2-c2ccccc2F)cc1	37.2	–	–
Cc1cc2ccccc2n1CCNC(=O)C1CCCC1	27.1	2.31 µM [rising, partial curve, poor fit]	–
COc1ccc2oc(C)c(C(=O)NN)c2c1	-6.11	–	–
CC(C)CCNC(=O)c1onc(CSc2ccc(F)cc2)c1C(=O)NCCC(C)C	33.2	14.6 µM [rising, partial curve]	14.6 µM [rising, partial curve, poor fit]
O=C(COCC(=O)Nc1cccc(C(F)(F)F)c1)Nc1cccc(C(F)(F)F)c1	-146	2.59 µM [rising, partial curve]	29.1 µM [falling, single point]
CC(=O)N1c2ccc(S(=O)(=O)N3CCCC3)cc2CC1C(=O)NCc1ccc(OC(C)C)cc1 (stereo not drawn)	-26.3	–	–
O=C1CSC(c2nn(-c3ccccc3)cc2-c2cc3ccccc3oc2=O)N1Cc1ccco1 (stereo not drawn)	13.4	16.4 µM [falling, single point]	–
CCNS(=O)(=O)c1ccc(CCC(=O)Nc2cc(Cl)ccc2Oc2ccccc2)cc1	-46.9	–	6.51 µM [falling, partial curve]
CNc1c([N+](=O)[O-])ncn1C	19.9	7.31 µM [falling, partial curve, poor fit]	–
CCc1nnc(NC(=O)CSc2nc(SC)ns2)s1	-12.2	–	–
Cc1cccc(C)c1OCC(=O)NCC1CCCO1 (stereo not drawn)	19.9	6.51 µM [rising, single point]	–
CS(=O)c1ccccc1COC(=O)Nc1ccc(Cl)cc1 (stereo not drawn)	–	0.651 µM [rising, single point]	0.517 µM [rising, single point]
O=C(Nc1nc2c(F)cc(F)cc2s1)C1COc2ccccc2O1 (stereo not drawn)	35.6	–	29.1 µM [rising, single point]
O=C(O)C1C2C=CC(C2)C1C(=O)Nc1cccc(F)c1 (stereo not drawn)	-184	–	29.1 µM [falling, single point]
CCOC(=O)C1CCN(C(=O)CCS(=O)(=O)c2ccc3c(c2)CCN3C(C)=O)CC1	-6.25	0.82 µM [rising, full curve]	0.13 µM [falling, full curve, poor fit]
CCOC(=O)N1CCC(N2Cc3cccc(C(=O)Nc4ccc(CC)cc4)c3C2=O)CC1	–	6.51 µM [rising, single point]	1.16 µM [rising, full curve]

Structure (SMILES)	cell number change [%]	AC50 [1]	AC50 [2]
O=C(COc1ccc2c3c(c(=O)oc2c1)CCCC3)NCc1cccnc1	-14.7	7.31 µM [rising, partial curve]	–
Cc1cc(C(=O)CSc2nc3ccccc3[nH]2)c(C)n1Cc1ccco1	-83.3	14.6 µM [falling, partial curve]	29.1 µM [falling, single point]
COCCNC(=S)N/N=C(\C)c1ccc(Cl)s1	-11	–	–
COc1ccc(CNC(=O)CN(C)S(=O)(=O)c2ccc3c(c2)OCCO3)cc1OC	3.19	20.6 µM [rising, single point]	–
COc1ccc(CN(C)C(=O)c2cc(-c3ccccc3)nc3ccc(C)cc23)c(OC)c1OC	-1.45	20.6 µM [falling, single point]	–
Cc1ccc(-c2nc(NC(=O)CSc3ccc4ccccc4n3)ns2)cc1	-47.1	20.6 µM [falling, single point]	29.1 µM [falling, single point]
O=C(COC(=O)c1nsc(Cl)c1Cl)NC1CCCCC1	3.81	–	–
Cc1csc(Nc2cccc3ccccc23)n1	22.1	–	–
Cc1cc(C(=O)CCl)c(C)n1-c1ccon1	-32.1	16.4 µM [falling, partial curve]	–
OC1C[N+]2(CCCCC2)C1	-92.3	3.66 µM [falling, full curve]	25.9 µM [falling, partial curve]
CC(=O)Nc1cc(NC(C)=O)cc(C(=O)OCC(=O)c2ccc3c(c2)OCO3)c1	50.7	–	29.1 µM [rising, single point]
COC(=O)c1cc(NC(=O)/C=C/c2ccccc2)ccc1O	-18.7	18.4 µM [falling, single point]	–
OCCN1CCN(c2cc(-c3ccccc3)c3ccccc3n2)CC1	-2.12	–	–
O=C(COc1ccc(Cl)cc1)Nc1ccc2c(c1)OCO2	40.8	–	0.146 µM [rising, full curve, poor fit]
O=[N+]([O-])c1ccc(Cl)c(-c2ccc(/C=N/n3cnnc3)o2)c1	2.11	5.8 µM [falling, single point]	–
O=C(NCCN1CCCCC1)c1c(O)c2ccccc2[nH]c1=O	-34.8	6.51 µM [falling, partial curve]	29.1 µM [falling, single point]
CC(C)(C)C(=O)c1cnc(Nc2ccccc2Cl)s1	-11	6.51 µM [rising, single point]	–
Cc1cccc(CSCCNC(=O)COc2ccc(Cl)cc2)c1	6.77	16.4 µM [rising, partial curve, poor fit]	–
CCCCOC(=O)c1cc(=O)[nH]c2ccc(C)cc12	1.59	–	–

From PubChem BioAssay AID2685 (National Center for Advancing Translational Sciences (NCATS), 2010)
